Assay results as given in article PMC10542381.
No constants are given. Whether binding was seen depends on the method and setting. Binding seen in cells or lysates may run through a third protein. Some entries that bind do so weakly or less than the wild type.

Amino acid sequences for entries named in this document (tags omitted).
UniProt P84022: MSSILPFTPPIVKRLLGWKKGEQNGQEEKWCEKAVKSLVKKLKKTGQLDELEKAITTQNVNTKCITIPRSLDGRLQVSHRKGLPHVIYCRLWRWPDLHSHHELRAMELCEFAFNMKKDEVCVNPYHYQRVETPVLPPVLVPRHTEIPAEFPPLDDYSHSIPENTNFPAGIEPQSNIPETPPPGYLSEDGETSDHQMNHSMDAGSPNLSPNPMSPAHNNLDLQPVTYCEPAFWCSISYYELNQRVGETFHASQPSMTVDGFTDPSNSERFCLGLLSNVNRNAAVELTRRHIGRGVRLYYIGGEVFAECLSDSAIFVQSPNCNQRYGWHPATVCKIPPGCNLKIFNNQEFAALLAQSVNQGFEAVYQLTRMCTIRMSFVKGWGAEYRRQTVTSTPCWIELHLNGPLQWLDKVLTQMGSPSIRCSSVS
UniProt Q15796: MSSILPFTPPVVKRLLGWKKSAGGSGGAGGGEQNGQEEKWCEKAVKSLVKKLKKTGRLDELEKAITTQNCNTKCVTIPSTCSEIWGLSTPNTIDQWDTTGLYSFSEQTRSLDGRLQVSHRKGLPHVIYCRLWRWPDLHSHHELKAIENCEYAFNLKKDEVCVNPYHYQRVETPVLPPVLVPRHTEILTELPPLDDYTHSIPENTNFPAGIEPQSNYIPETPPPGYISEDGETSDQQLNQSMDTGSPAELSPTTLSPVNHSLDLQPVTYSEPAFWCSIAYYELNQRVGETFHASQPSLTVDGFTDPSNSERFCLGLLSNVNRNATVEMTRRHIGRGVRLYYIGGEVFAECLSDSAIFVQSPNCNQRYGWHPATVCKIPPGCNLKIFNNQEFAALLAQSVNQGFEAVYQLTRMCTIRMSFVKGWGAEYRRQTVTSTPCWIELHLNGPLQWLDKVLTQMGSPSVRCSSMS

Key:
[1] = target: SMAD3 (human (endogenous in HK2)) (UniProt P84022); assay: co-IP; HK2 cell lysates, cells without TGF-β; Co-IP with anti-SIRT2 or anti-SMAD3 antibody, normal rabbit IgG as control, western blotting
[2] = target: SMAD3 (human (endogenous in HK2)) (UniProt P84022); assay: co-IP; HK2 cell lysates, cells in the presence of TGF-β; Co-IP with anti-SIRT2 or anti-SMAD3 antibody, normal rabbit IgG as control, western blotting
[3] = target: SMAD2 (human (endogenous in HK2)) (UniProt Q15796); assay: co-IP; HK2 cell lysates, Co-IP with anti-SIRT2 or anti-SMAD2 antibody, normal rabbit IgG as control, western blotting; co-IP buffer 20 mM Tris-HCl pH 8.0, 100 mM NaCl, 1 mM EDTA, 0.5% NP-40; 4 °C overnight

B1: SIRT2 (enzyme, UniProt Q8IXJ6 1-389)
chain: MAEPDPSHPLETQAGKVQEAQDSDSDSEGGAAGGEADMDFLRNLFSQTLSLGSQKERLLDELTLEGVARYMQSERCRRVICLVGAGISTSAGIPDFRSPSTGLYDNLEKYHLPYPEAIFEISYFKKHPEPFFALAKELYPGQFKPTICHYFMRLLKDKGLLLRCYTQNIDTLERIAGLEQEDLVEAHGTFYTSHCVSASCRHEYPLSWMKEKIFSEVTPKCEDCQSLVKPDIVFFGESLPARFFSCMQSDFLKVDLLLVMGTSLQVQPFASLISKAPLSTPRLLINKEKAGQSDPFLGMIMGLGGGMDFDSKKAYRDVAWLGECDQGCLALAELLGWKKELEDLVRREHASIDAQSGAGVPNPSTSASPKKSPPPAKDEARTTEREKPQ
- binding [1]: no binding (condition: without TGF-β)
- binding [2]: binds
- binding [3]: binds
